The target of this assay is T1, recombinant TNFα, biotinylated (human, UniProt P01375 77-233, biotinylated using sulfo-NHS-LC-Biotin (sites not given)).
T1 construct: human is stated in the abstract and claims; also called biotinylated TNFα; human TNFα
Nature of the assay: ELISA of lysates on biotinylated TNFα on streptavidin plate. As to the method:
Maxisorp plates (Nunc) were coated with 0.5 μg of streptavidin, washed with TBST, and bound to 100 ng of biotinylated TNFα or 200 ng of biotinylated human serum albumin before being blocked with Starting Block (Thermo Scientific). Clarified lysates diluted 1:1 in Starting Block were added to the plates and allowed to bind for 1 hour before being washed with TBST. Detection of bound Tencon was accomplished using an anti-HIS-HRP antibody (Qiagen).

Amino acid sequences for entries named in this document (tags omitted). Residues count along the entry.
UniProt P01375, residues 77-233: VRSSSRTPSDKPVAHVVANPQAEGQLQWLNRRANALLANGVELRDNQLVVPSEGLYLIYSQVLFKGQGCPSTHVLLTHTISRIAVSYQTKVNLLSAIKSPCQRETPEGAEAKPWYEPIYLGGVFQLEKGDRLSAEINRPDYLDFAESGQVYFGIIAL

Where a chain is given by its changes, count along the chain named. No constants are given. Whether binding was seen depends on the method and setting. Some results given as binding are weak or reduced against the parent protein; the word gives no strength.

B1: Clone No. 64 (designed binder)
chain: LPAPKNLVVSEVTEDSLRLSWMDIDHSFDSFLIQYQESEKVGEAINLTVPGSERSYDLTGLKPGTEYTVSIYGVSLGYTTKPLSAEFTT
Regarding B1, the binding entry is reported as “binds”.

B2: Clone No. 67 (designed binder)
chain: LPAPKNLVVSEVTEDSLRLSWRMRTTEFDSFLIQYQESEKVGEAINLTVPGSERSYDLTGLKPGTEYTVSIYGVQSADVFTPLSAEFTT
Regarding B2, the binding entry was “binds”.

B3: Clone No. 95 (designed binder)
chain: LPAPKNLVVSEVTEDSLRLSWKASGRKFDSFLIQYQESEKVGEAINLTVPGSERSYDLTGLKPGTEYTVSIYGVPSIASIIPLSAEFTT
For the molecule B3, the binding entry is “binds”.

B4: Clone No. 61 (designed binder)
chain: LPAPKNLVVSEVTEDSLRLSWYSILEAFDSFLIQYQESEKVGEAINLTVPGSERSYDLTGLKPGTEYTVSIYGVYCAPPMKPLSAEFTT
B4: the binding result was “binds”.

B5: Clone No. 65 (designed binder)
chain: LPAPKNLVVSEVTEDSLRLSWGSMNEHFDSFLIQYQESEKVGEAINLTVPGSERSYDLTGLKPGTEYTVSIYGVENDKSPMPLSAEFTT
B5: the binding result was “binds”.

B6: Clone No. 60 (designed binder)
chain: LPAPKNLVVSEVTEDSLRLSWPNSAMFFDSFLIQYQESEKVGEAINLTVPGSERSYDLTGLKPGTEYTVSIYGVHSYGETLPLSAEFTT
Consider B6, for which the binding entry is recorded as “binds”.

B7: Clone No. 56 (designed binder)
chain: LPAPKNLVVSEVTEDSLRLSWCGYGKMFDSFLIQYQESEKVGEAINLTVPGSERSYDLTGLKPGTEYTVSIYGVFILPKLFPLSAEFTT
For the molecule B7, the binding entry is “binds”.

B8: Clone No. 63 (designed binder)
chain: LPAPKNLVVSEVTEDSLRLSWTEGKEGFDSFLIQYQESEKVGEAINLTVPGSERSYDLTGLKPGTEYTVSIYGVSPWLARRPLSAEFTT
Turning to B8, the binding entry is “binds”.

B9: Clone No. 59 (designed binder)
chain: LPAPKNLVVSEVTEDSLRLSWYYRIIEFDSFLIQYQESEKVGEAINLTVPGSERSYDLTGLKPGTEYTVSIYGVSMNLLSPPLSAEFTT
Take B9: the binding result is listed as “binds”.

B10: Clone No. 62 (designed binder)
chain: B9 chain with Y22K, Y23V, R24C, I25T, I26A, E27Y, S75G, L78S, L79F
As for B10, the binding entry is reported as “binds”.

B11: Clone No. 97 (designed binder)
chain: LPAPKNLVVSEVTEDSLRLSWGRTFDWFDSFLIQYQESEKVGEAIDLTVPGSERSYDLTGLKPGTEYTVSIYGVKGRRHTKPLSAEFTT
For the molecule B11, the binding result is on record as “binds”.

B12: Clone No. 89 (designed binder)
chain: LPAPKNLVVSEVTEDSLRLSWLRWYSVFDSFLIQYQESEKVGEAINLTVPGSERSYDLTGLKPGTEYTVSIYGVSKFGVEGPLSAEFTT
For B12, the binding entry is listed as “binds”.

B13: Clone No. 91 (designed binder)
chain: B12 chain with L22G, R23T, W24S, Y25T, S26R, V27R, T48I, S75T, K76R, G81Q
Turning to B13, the binding entry is “binds”.

B14: Clone No. 93 (designed binder)
chain: B12 chain with L22N, R23F, W24A, Y25N, S26V, V27M, S30F, S75T, K76R, G81Q
With B14, the binding result is reported as “binds”.

B15: Clone No. 90 (designed binder)
chain: B12 chain with S30F, S75T, K76R, G81Q
For B15, the binding entry is reported as “binds”.

B16: Clone No. 58 (designed binder)
chain: LPAPKNLVVSEVTEDSLRLSWFIFAIMFDSFLIQYQESEKVGEAINLTVPGSERSYDLTGLKPGTEYTVSIYGVLRLELRKPLSAEFTT
For the molecule B16, the binding result is listed as “binds”.

B17: Clone No. 96 (designed binder)
chain: B16 chain with F22L, I23V, F24L, A25G, I26A, L75K, R76T, L77P, E78H, L79S
With B17, the binding result was “binds”.

B18: Clone No. 98 (designed binder)
chain: LPAPKNLVVSEVTEDSLRLSWFYLNFEFDSFLIQYQESEKVGEAINLTVPGSERSYDLTGLKPGTEYTVSIYGVYRSKYTLPLSAEFTT
As for B18, the binding result is “binds”.

B19: Clone No. 57 (designed binder)
chain: LPAPKNLVVSEVTEDSLRLSWCDLWSSFDSFLIQYQESEKVGEAINLTVPGSERSYDLTGLKPGTKYTVSIYGVKYHYPYPPLSAEFTT
As to B19, the binding result is reported as “binds”.

B20: Clone No. 94 (designed binder)
chain: LPAPKNLVVSEVTEDSLRLSWWKVGSVFDSFLIQYQESEKVGEAINLTVPGSERSYDLTGLKPGTEYTVSIYGVLHHLTLHPLSAEFTT
As for B20, the binding entry is listed as “binds”.

B21: Clone No. 92 (designed binder)
chain: LPAPKNLVVSEVTEDSLRLSWNFANVMFDFFLIQYQESEKVGEAINLTVPGSERSYDLTGLKPGTEYTLSIYGVTRFGVEQPLSAEFTT
Take B21: the binding entry was “binds”.

B22: Clone No. 99 (designed binder)
chain: B21 chain with L69V, T75M, R76G, F77T, G78H, V79L, E80T, Q81L
As for B22, the binding result is “binds”.

B23: Clone No. 66 (designed binder)
chain: LPAPKNLVVSEVTEDSLRLSWSFSHTVFDSFLIQYQESEKVGEAINLTVPGSERSYDLTGLKPGTEYTVSIYGVDESIPISPLSAEFTT
As for B23, the binding entry is “binds”.

Values taken from patent publication US20100144601A1 (Janssen / Centocor, published 2010).
